Source: paper PMC10341498, “A Mannose Receptor from Litopenaeus vannamei Involved in Innate Immunity by Pathogen Recognition and Inflammation Regulation” (International Journal of Molecular Sciences, 2023)

System: T1, rLvMR (LvMR, mannose receptor)
T1 construct: mature peptide without signal peptide (primers span Cys23 to residue 315 of 315) in pET32a; N-terminal Trx/His fusion, about 53 kDa
Test: inhibition of agglutination of FITC-labelled V. parahaemolyticus, fluorescence microscopy
Assay type: binding, Penaeus vannamei
Details: 10 mmol L^-1 CaCl2, 4 h

[1] = two-fold steps 25-200 mmol L^-1 tested

Row | Structure (SMILES) | minimum concentration for complete inhibition of agglutination [1] | minimum concentration for complete inhibition of agglutination (two-fold steps 25-200 mmol L^-1 tested (25 is the lowest tested))
1 | OC[C@H]1OC(O)[C@H](O)[C@@H](O)[C@H]1O (stereo partly drawn) [D-galactose] | 50 mmol/L | –
2 | OC[C@H]1OC(O)[C@H](O)[C@@H](O)[C@@H]1O (stereo partly drawn) [D-glucose] | 100 mmol/L | –
3 | OC[C@H]1OC(O)[C@@H](O)[C@@H](O)[C@@H]1O (stereo partly drawn) [D-mannose] | – | 25 mmol/L
4 | CC(=O)N[C@H]1C(O)O[C@H](CO)[C@@H](O)[C@@H]1O (stereo partly drawn) [N-acetyl-D-glucosamine] | 100 mmol/L | –
5 | CC(=O)N[C@@H]1C(O)O[C@H](CO)[C@@H](O)[C@@H]1O (stereo partly drawn) [N-acetyl-D-mannosamine] | 200 mmol/L | –
6 | CC(=O)N[C@@H]1[C@@H](O)[C@@H](O)[C@@H](CO)O[C@H]1O [N-acetyl-β-D-galactosamine] | 200 mmol/L | –
7 | CC(=O)N[C@H]1[C@H]([C@H](O)[C@H](O)CO)OC(O)(C(=O)O)C[C@@H]1O (stereo partly shown) [N-acetylneuraminic acid] | 50 mmol/L | –
